Assay results taken from article PMC6679068.
These are yes or no findings as the source states them, for the method shown. In cells and extracts the contact can be indirect. These calls come from enrichment with a bait or labelling near it, and not all partners need be listed. Sequences can lack the tags named with a protein.

T1: HIS-GFP-tagged full-length CpnA (copine A) (Dictyostelium discoideum) (UniProt Q7YXU4)
T1 sequence: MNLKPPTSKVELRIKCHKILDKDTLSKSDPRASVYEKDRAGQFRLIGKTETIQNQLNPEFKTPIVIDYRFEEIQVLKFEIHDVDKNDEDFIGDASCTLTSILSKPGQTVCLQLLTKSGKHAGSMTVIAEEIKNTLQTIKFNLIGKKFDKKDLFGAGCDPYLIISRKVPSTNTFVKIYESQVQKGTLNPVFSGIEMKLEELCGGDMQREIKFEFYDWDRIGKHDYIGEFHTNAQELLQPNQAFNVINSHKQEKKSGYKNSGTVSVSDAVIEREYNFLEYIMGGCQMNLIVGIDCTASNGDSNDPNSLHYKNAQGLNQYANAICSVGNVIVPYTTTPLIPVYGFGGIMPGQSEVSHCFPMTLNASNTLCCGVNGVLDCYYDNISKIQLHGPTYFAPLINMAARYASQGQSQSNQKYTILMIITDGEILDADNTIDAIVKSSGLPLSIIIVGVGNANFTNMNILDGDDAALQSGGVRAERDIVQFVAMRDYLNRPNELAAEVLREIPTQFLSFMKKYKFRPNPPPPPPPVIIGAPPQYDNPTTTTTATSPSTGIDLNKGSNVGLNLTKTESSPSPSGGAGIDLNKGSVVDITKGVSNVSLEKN

B1: S-adenosyl-L-homocysteine hydrolase (enzyme, UniProt P10819 1-431)
chain: MTKLHYKVKDISLAAWGRKEIEIAENEMPGLMTLRKKYGPAQILKGARIAGCLHMTIQTAVLIETLTALGAQVQWSSCNIFSTQDQAAAAIAATGVPVYAWKGETEEEYNWCVEQTIVFQDGQPLNMILDDGGDLTNLVHEKYPQFLAGIKGISEETTTGVHNLYKMFKEGKLKVPAINVNDSVTKSKFDNLYGCRESLIDGIKRATDVMIAGKVAVVAGYGDVGKGCAQSLSKMGARVLVTEIDPINALQACMDGYQIVTMETAAPLSNIFVTTTGCRDIVRGEHFAVMKEDAIVCNIGHFDCEIDVAWLNANAKKDTVKPQVDRYTLANGVHIILLAEGRLVNLGCGTGHPSFVMSNSFCNQTLAQIALWTKTEEYPLGVHFLPKILDEEVARLHLDQLGAKLTTLTEKQSEYLSVPVAGPYKVDHYRY
B2: discoidin II (protein, UniProt P42530 1-257)
chain: MSVPAGSVSCLANALLNLRSSTDYNADHGVKNSILNFSNSKDASRFDGSESWSSSVLDKNQFIVAGSDSVKHFVAISTQGRGDHDQWVTSYKLRYTLDNVNWVEYNNGEIINANKDRNSIVTINFNPPIKARSIAIHPQTYNNHISLRWELYALPVKSYSNPSVQVGEVSIGDRSLNSGTGSRTIVRHVKFPVEFLSVPIVSIGCKKVDAHTDNGQMRWEGKSENITTKGFDLTFITWGNNAVYDLTFDYVAVEFNN
B3: Acetylornithine deacetylase (enzyme, UniProt P54638 1-447)
chain: MTKPVASYELDEKRFLTLLGKLIGETENLQNRPPALIPIEDNAGRHVIEALTPYLKANGGVLELEQVHCDPVNYPKRGNIIIEYPGTSKGTSSPKTISFVGSHLDVVPADKTAWDRNPFQLIIEGDKLYGRGTTDCLGHVALLTDLFIQLATEKPALKHSIFAVFIVSEENDEIPGIGVDALDHSGKMNPCKNGPVYWVDSADSQPTIGTGGAQTWNLTAHGKNMHSAMPYRTVNSVELVNEALAEIQRRFYIDFKPHPKEAEYKFDCSSTMKPTLWKPIAGSYNTIPGESTICGDIRLTPFYDMKEMRAKVEGYIKDINANITELRNRGPYSKYDVPASEGVEPVKGSVSIEWLGEASAGVACKLDSDGYKALGKATSEILGSLTPVATCGTLPLVRDLQDSGFDIQITGFGKEETYHADNEYALLSDFKNAIKILSRTIDLLEKN

Each molecule was assayed against T1, HIS-GFP-tagged full-length CpnA (copine A) (Dictyostelium discoideum) (assay: affinity purification with mass spectrometry; purified GFP-CpnA covalently coupled to agarose beads (Aminolink Plus) in a column; soluble proteins of NC4A2 lysate with 10 mM CaCl2, pH 7.4 applied; washed in homogenization buffer with 2 mM CaCl2; eluted with 0.2 M glycine pH 2.5; control column with beads only; bands from SDS-PAGE identified by MALDI MS; only the target purified).

binding, binds:
discoidin I
B1
B2
B3
